Results from patent US20260071190A1, “SARS CORONAVIRUS 2 R[…] […] GENES, DERIVED FROM GH CLADE SARS CORONAVIRUS 2 OF KOREAN ISOLATE, AND THE PRODUCTION METHOD THEREFOR” (RpexBio, Inc., priority 2022, published 2026).
For at least one compound, name, drawing or mass did not settle the structure.

System: rSARS-COV-2/YS006_RFP
Type: cell-based, SARS coronavirus 2

CCC(CC)COC(=O)[C@H](C)N[P@](=O)(OC[C@H]1O[C@@](C#N)(c2ccc3c(N)ncnn23)[C@H](O)[C@@H]1O)Oc1ccccc1 [remdesivir]
replication assessed by RFP expression: significantly inhibited
fluorescence signal intensity of tomato red fluorescent protein (Vero cells, 24 hours after treatment, fluorescence microscope, FIG. 5C): significantly reduced
